In all, about 320,000 compounds went through this assay and about 22,000 (6.9%) were called active. This list was built around the results that the source calls inconclusive (neither active nor inactive); the mix of calls is not that of the screen. Calls follow the shape of the dose curve; as a rule, active = well fitted inhibition curve with a large enough effect; inconclusive = small, poorly fitted or top-dose-only effect, or another doubt; inactive = no such curve, though single readings can be large or run the other way. Potencies beside an inconclusive call are fits to weak or partial responses and may not hold up.
Assay: Primary qHTS for delayed death inhibitors of the malarial parasite plastid, 96 hour incubation
Conditions: P. falciparum luciferase reporter growth; series mostly up to 28.7 µM; activity change, negative = inhibition: at the top concentration
How it was run: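 Erythrocytes infected with luciferase-expressing P. falciparum were dispensed at 2% hematocrit and 0.05% parasitemia (final), then incubated with compounds 96 hours at 37 C in 5% CO2. Luminescence after detection reagent addition reported growth.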
% is scaled to controls: 0 for no effect and ±100 for the full control effect; potency is read from the fitted curve at half-maximal effect.

Compound	Potency	activity change, negative = inhibition
COc1cc(C(=O)NNC(=O)c2cc(-c3ccccc3)n[nH]2)cc(OC)c1C	inconclusive: 0.0586 µM [inhibitor, full curve, poor fit]	
COc1ccc(C(=O)O)cc1S(=O)(=O)NC(C)C12CC3CC(CC(C3)C1)C2 (stereo unspecified)		inactive: -7.8%
CC(=O)Oc1cccc(C(=O)Nc2ccccc2C(=O)N2CCCC2)c1		inactive: 13.2%
Cc1[nH]c2ccccc2c1CCN(Cc1cccnc1)C(=S)Nc1ccc(F)cc1		inactive: -64%
COc1cccc(COC(=O)c2ccc(S(=O)(=O)N3CCC(C)CC3)cc2)c1OC	inconclusive: 8.28 µM [inhibitor, partial curve, poor fit]	
Cc1ccc(S(=O)(=O)n2ccnc2)cc1C	inconclusive: 18.5 µM [inhibitor, single point]	
O=C(/C=C/c1ccc(S(=O)(=O)N2CCOCC2)cc1)NCc1ccccc1Cl	inconclusive: 16.5 µM [inhibitor, single point]	
Cc1ccc(NC(=O)CCC(=O)c2cccs2)cc1		inactive: 272%
COc1ccc(C2CC(=O)c3cnc(N4CCN(Cc5ccccc5)CC4)nc3C2)cc1 (stereo unspecified)		inactive: 11.6%
CN(C)c1ccc(C(c2nnnn2CCOC(=O)Nc2ccc(Cl)cc2)N2CCOCC2)cc1 (stereo unspecified)		inactive: 9.35%
CCOC(=O)C(C(=O)NCC1CCCO1)C1CCCCC1 (stereo unspecified)	inconclusive: 11.7 µM [inhibitor, single point]	
COC(=O)c1c(NC(=O)CC2SC(N)=NC2=O)sc2c1CCC(C)C2 (stereo unspecified)	active: 3.7 µM	
Cc1ccc(-c2nn(-c3ccccc3)cc2C2SCC(=O)N2Cc2ccccc2)o1 (stereo unspecified)		inactive: -20.8%
Cc1ccc(S(=O)(=O)Nc2nc(C)c(C(=O)N/N=C/c3ccccc3)s2)cc1	inconclusive: 0.0294 µM [inhibitor, partial curve, poor fit]	
Cc1cc(Cl)ccc1OCC(=O)Nc1ccncc1	inconclusive: 11.7 µM [inhibitor, partial curve, poor fit]	
Cc1ncc(CO)c2c1Oc1nc(-c3ccccc3)nc(SCC(=O)N(C)c3ccccc3)c1C2	active: 13.1 µM	
Brc1ccccc1Cn1c(-c2cscn2)nc2ccccc21	active: 10.4 µM	
Cc1ccc(S(=O)(=O)N2CCC(C(=O)N[C@H](C(=O)NCc3ccco3)C(C)C)CC2)cc1		inactive: -27.4%
Cc1ccc(NC(=O)CN(C)C(=O)/C=C/c2cccs2)cc1	inconclusive: 0.465 µM [inhibitor, full curve, poor fit]	
Cc1ccc(-n2c3c(cc(C(=O)NCc4ccco4)c2=O)C(=O)CC(C)(C)C3)cc1	active: 0.465 µM	
O=C(c1cccc(Cl)c1)C1CCCN(S(=O)(=O)c2ccccc2)C1 (stereo unspecified)		inactive: -5.61%
CC(O)c1nc2ccccc2n1Cc1nnc(-c2ccc(Cl)cc2)o1 (stereo unspecified)		inactive: -17.4% [at 5.75 µM]
CCOc1ccc(N(CC(=O)NC2CCCCCC2)S(=O)(=O)c2c(C)noc2C)cc1	inconclusive: 18.5 µM [inhibitor, single point]	
CC1CCCCC12NC(=O)N(CC(=O)NCCc1ccccn1)C2=O (stereo unspecified)	inconclusive: 10.4 µM [inhibitor, single point]	

Ordered by SMILES length (largest number first): some entries from above.
Compound	Potency	activity change, negative = inhibition
COc1cc(C(=O)NNC(=O)c2cc(-c3ccccc3)n[nH]2)cc(OC)c1C	inconclusive: 0.0586 µM [inhibitor, full curve, poor fit]	
Cc1ccc(-c2nn(-c3ccccc3)cc2C2SCC(=O)N2Cc2ccccc2)o1 (stereo unspecified)		inactive: -20.8%
CC1CCCCC12NC(=O)N(CC(=O)NCCc1ccccn1)C2=O (stereo unspecified)	inconclusive: 10.4 µM [inhibitor, single point]	
Cc1ccc(NC(=O)CN(C)C(=O)/C=C/c2cccs2)cc1	inconclusive: 0.465 µM [inhibitor, full curve, poor fit]	

Remaining list, next part:

Compound	Potency	activity change, negative = inhibition
O=C1C2C3C=CC(C3)C2C(=O)N1CN(Cc1ccccc1)CN1C(=O)C2C3C=CC(C3)C2C1=O (stereo unspecified)	inconclusive: 4.65 µM [inhibitor, partial curve, poor fit]	
O=C(O)c1ccc(CSc2nc3ccccc3[nH]2)cc1	inconclusive: 13.1 µM [inhibitor, partial curve]	
O=C(Nc1ccn(CC(=O)N2CCN(c3ccccn3)CC2)c(=O)n1)OCc1ccccc1	inconclusive: 16.5 µM [inhibitor, single point]	
Cc1ccc2oc(=O)cc(CN3CCC(C)CC3)c2c1	active: 5.86 µM	
COCCN1Cc2cccc(C(=O)Nc3c(C)cc(C)cc3C)c2C1=O	inconclusive: 0.0023 µM [inhibitor, full curve, poor fit]	
O=c1c2ccccc2[nH]c(=S)n1-c1ccc(Br)cc1	inconclusive: 5.86 µM [inhibitor, partial curve]	
CC1Cc2cc(S(=O)(=O)N3CCC(C(=O)N(C)Cc4ccccc4)CC3)ccc2N1C(=O)C1CC1 (stereo unspecified)	active: 10.4 µM	
O=C1c2sc3nc4n(c(=O)c3c2CCC1Br)CCCCC4 (stereo unspecified)	active: 9.28 µM	
O=C(Cc1ccccc1[N+](=O)[O-])OCc1cccc([N+](=O)[O-])c1		inactive: 8.65%
O=C(c1ccccc1F)N1CCN(S(=O)(=O)c2ccc3c(c2)OCCO3)CC1	active: 9.28 µM	
CCN1C(=S)SC(=O)C1=C1C=C(C)N(Cc2ccco2)C(C)=C1		inactive: -23.7%
CSc1ncc(CO)n1Cc1ccccc1	inconclusive: 4.65 µM [inhibitor, partial curve]	
Cc1ccc(F)cc1CNC(=O)C1CCC(=O)N(CCCN2CCCC2=O)C1 (stereo unspecified)		inactive: 9.07%
Cc1ccccc1OCc1nc(-c2ccc(Br)o2)no1		inactive: -2.02%
CC(C)=C1SC(N2CCCCC2)=NC1=O	inconclusive: 7.38 µM [inhibitor, partial curve]	
CC(C)CC(C(=O)NC1CCCC1)N(Cc1ccc2c(c1)OCO2)C(=O)c1snc(C(N)=O)c1N (stereo unspecified)	inconclusive: 3.29 µM [inhibitor, full curve, poor fit]	
CC(C)(C)NC(=O)C1CCN(S(=O)(=O)c2cccc3nsnc23)CC1		inactive: 15.8%
CCC(=NCCc1ccccc1)c1c(O)[nH]c(=O)[nH]c1=O	inconclusive: 13.1 µM [inhibitor, single point]	
Cc1ccc(S(=O)(=O)Cn2nnnc2C(C(C)C)N2CCN(c3nc4ccccc4s3)CC2)cc1 (stereo unspecified)	inconclusive: 6.57 µM [inhibitor, partial curve, poor fit]	
COc1ccc(Cl)cc1NC(=O)CCN1CCN(Cc2ccccc2)CC1	inconclusive: 18.5 µM [inhibitor, single point]	
CCOC(=O)c1cc(S(=O)(=O)N2CCN(Cc3ccccc3)CC2)cn1C	inconclusive: 0.165 µM [inhibitor, full curve, poor fit]	
O=S(=O)(c1ccc(-c2csc(Nc3ccc(F)cc3)n2)cc1)N1CCCC1		inactive: 163%
CC(C)(C)c1ccc(Oc2ccc(N)cn2)cc1	inconclusive: 18.5 µM [inhibitor, single point]	
COc1ccccc1CNC(=O)c1cc2c(C)nn(Cc3ccc(F)cc3)c2s1	active: 11.7 µM	

Compound	Potency	activity change, negative = inhibition
O=S(=O)(c1cccc2cccnc12)N1CCc2ccccc21	inconclusive: 6.57 µM [inhibitor, partial curve]	
COc1cccc(CC2(CO)CCCN(Cc3sc(N4CCCC4)nc3Cl)C2)c1 (stereo unspecified)	active: 14.7 µM	
COc1ccccc1NS(=O)(=O)c1cccc(NC(=O)c2nc3nc(C)cc(C)n3n2)c1	inconclusive: 9.28 µM [inhibitor, single point]	
CCOC(=O)c1ccccc1NC(=O)Cn1cnc2c(cnn2C(C)(C)C)c1=O	inconclusive: 18.5 µM [inhibitor, single point]	
Cc1ccc(C)c(NC(=O)N2CCCCCC2)c1	inconclusive: 16.5 µM [inhibitor, partial curve, poor fit]	
N#Cc1ccc(-c2csc(NC(=O)c3cc(-c4cccs4)nc4ccccc34)n2)cc1	inconclusive: 16.5 µM [inhibitor, single point]	
Clc1cccc(CNCC2CCCO2)c1Cl (stereo unspecified)	inconclusive: 18.5 µM [inhibitor, single point]	
O=C(O)c1ccccc1OC(C(=O)Nc1cc(Cl)cc(Cl)c1)c1ccccc1 (stereo unspecified)	inconclusive: 18.5 µM [inhibitor, single point]	
CC(=O)c1cccc(N(CC(=O)N2CCCCC2)S(C)(=O)=O)c1	inconclusive: 14.7 µM [inhibitor, partial curve, poor fit]	
CCOC(=O)CC(=O)NC1(Cc2ccc(O)cc2)CCCCC1		inactive: -47.4%
Cn1ccc(O)c(C#N)c1=O	inconclusive: 0.0465 µM [inhibitor, full curve, poor fit]	
COc1cccc(Cn2c(=O)sc3ccccc3c2=O)c1		inactive: 0.849%
Cc1cc(NC(=O)CSc2nc(=O)cc(N)n2-c2ccc(C)c(C)c2)no1	inconclusive: 9.28 µM [inhibitor, partial curve, poor fit]	
CCOc1ccccc1NC(=O)c1nc(S(=O)(=O)Cc2ccccc2)ncc1Cl	inconclusive: 18.5 µM [inhibitor, single point]	
Cc1cc(S(=O)(=O)N2CCCC2)ccc1OCC(=O)Nc1ccc(C(N)=O)cc1	inconclusive: 14.7 µM [inhibitor, partial curve, poor fit]	
Cn1cc(C(=O)NC2CCCCCCC2)c(=O)c2cc(S(=O)(=O)N3CCCC3)ccc21	active: 8.28 µM	
CCCCn1c(-c2cccs2)nc2oc3ccccc3c(=O)c2c1=O	inconclusive: 0.0657 µM [inhibitor, full curve]	
O=c1c2sccc2n(Cc2ccc(F)cc2)c(=O)n1-c1ccc(F)cc1	inconclusive: 3.7 µM [inhibitor, single point]	
Cc1oc(-c2ccc3c(c2)OCCO3)cc1C(=O)NC(Cc1ccccc1)C(=O)O (stereo unspecified)		inactive: 22.4%
Cc1nc(N)c(Cc2ccccc2F)c(N)n1	inconclusive: 1.17 µM [inhibitor, full curve, poor fit]	
CC(C)C[C@H](NC(=O)[C@@H]1Cc2ccccc2CN1)C(=O)Nc1ccc(C(C)C)cc1	inconclusive: 18.5 µM [inhibitor, single point]	
Cc1c(C(=O)N2CC(C)OC(C)C2)[nH]c2ccc(Br)cc12 (stereo unspecified)	active: 13.1 µM	
Cc1ccc2c(c1)c(-c1ccccc1)nc1nnnn12		inactive: 30.2%

From PubChem BioAssay AID504834 (National Center for Advancing Translational Sciences (NCATS), 2011)
